Source: US20110212890A1, “METASTIN DERIVATIVE AND USE THEREOF” (Takeda Pharmaceutical Company Limited, priority 2008, published 2011)
Some entries share one result that the patent states for a list of compounds.

How the values were obtained:
male Crl: CD (SD) rats [1] = assay: LH release action in male rat (plasma LH by radioimmunoassay); assay type: in vivo; conditions: subcutaneous to the dorsum, 1, 10 or 100 nmol/kg, AUC from 0 hour to 4 hours after the administration, vs control group
Experimental: (§1) For male Crl: CD (SD) rats (8 or 10 weeks old), compounds 1 (10 weeks old), 3, 8, 9, 10 and 11 (8 weeks old) (1, 10 or 100 nmol/kg), and metastin (45-54) (PEPTIDE INSTITUTE, INC., 10 or 100 nmol/kg), which were dissolved in physiological saline, were administered subcutaneously to the dorsum. For the control group, a physiological saline was administered subcutaneously to the dorsum. About 0.4 mL of the blood was collected from the tail vein before the administration (0 hour) and after 0.5, 1, 2, 4 hours of the administration of compounds 1, 3, 8, 9, 10 and 11, and metastin (45-54), or physiological saline. The collected blood was well mixed with 12 μL of 10 w/v % EDTA.2Na-containing trasylol solution (Bayer AG), and then separated by centrifugation at 12,000 rpm for 10 minutes, and the supernatant was recovered as the plasma sample. The concentrations of luteinizing hormone (LH) and total testosterone in the plasma were measured with radioimmunoassay (rat LH RIA Immuno-reagent set, National Hormone and Peptide Program, available from Dr. A. F. Parlow, The National Institute of Diabetes and Digestive and Kidney Diseases, and DPC Total Testosterone Kit, Mitsubishi Chemical Formula Iatron, Inc.).

male Crl: CD (SD) rats [2] = assay: Testosterone release action in male rat (plasma total testosterone by radioimmunoassay); assay type: in vivo; conditions: subcutaneous to the dorsum, 1, 10 or 100 nmol/kg, AUC from 0 hour to 4 hours after the administration, vs control group
Experimental: as §1

PEG20K(CS)-CO-Acp-Tyr-Asn-Trp-Asn-Ser-Phe-Gly-Leu-Arg-Phe-NH2 (YNWNSFGLRF; PEG20K(CS)-CO-Acp N-terminal; C-terminal amide; printed: Tyr-Asn-Trp-Asn-Ser-Phe-Gly-Leu-Arg-Phe-) [compound 3]
dose showing (significant) increase in the LH concentration in the plasma (AUC) (male Crl: CD (SD) rats [1]): ≥ 10 nmol/kg | dose showing (significant) increase in the total testosterone concentration in the plasma (AUC) (male Crl: CD (SD) rats [2]): ≥ 10 nmol/kg
